Test results published in PMC9394524.
Residue numbers refer to the chain shown, from its start. In names and notes the source's numbering stands. No constants are given. Whether binding was seen depends on the method and setting. Binding seen in cells or lysates may run through a third protein. Some entries that bind do so weakly or less than the wild type. Sequences can lack the tags named with a protein.

T1: Kel1-GFP (S. cerevisiae) (UniProt P38853)
T1 sequence: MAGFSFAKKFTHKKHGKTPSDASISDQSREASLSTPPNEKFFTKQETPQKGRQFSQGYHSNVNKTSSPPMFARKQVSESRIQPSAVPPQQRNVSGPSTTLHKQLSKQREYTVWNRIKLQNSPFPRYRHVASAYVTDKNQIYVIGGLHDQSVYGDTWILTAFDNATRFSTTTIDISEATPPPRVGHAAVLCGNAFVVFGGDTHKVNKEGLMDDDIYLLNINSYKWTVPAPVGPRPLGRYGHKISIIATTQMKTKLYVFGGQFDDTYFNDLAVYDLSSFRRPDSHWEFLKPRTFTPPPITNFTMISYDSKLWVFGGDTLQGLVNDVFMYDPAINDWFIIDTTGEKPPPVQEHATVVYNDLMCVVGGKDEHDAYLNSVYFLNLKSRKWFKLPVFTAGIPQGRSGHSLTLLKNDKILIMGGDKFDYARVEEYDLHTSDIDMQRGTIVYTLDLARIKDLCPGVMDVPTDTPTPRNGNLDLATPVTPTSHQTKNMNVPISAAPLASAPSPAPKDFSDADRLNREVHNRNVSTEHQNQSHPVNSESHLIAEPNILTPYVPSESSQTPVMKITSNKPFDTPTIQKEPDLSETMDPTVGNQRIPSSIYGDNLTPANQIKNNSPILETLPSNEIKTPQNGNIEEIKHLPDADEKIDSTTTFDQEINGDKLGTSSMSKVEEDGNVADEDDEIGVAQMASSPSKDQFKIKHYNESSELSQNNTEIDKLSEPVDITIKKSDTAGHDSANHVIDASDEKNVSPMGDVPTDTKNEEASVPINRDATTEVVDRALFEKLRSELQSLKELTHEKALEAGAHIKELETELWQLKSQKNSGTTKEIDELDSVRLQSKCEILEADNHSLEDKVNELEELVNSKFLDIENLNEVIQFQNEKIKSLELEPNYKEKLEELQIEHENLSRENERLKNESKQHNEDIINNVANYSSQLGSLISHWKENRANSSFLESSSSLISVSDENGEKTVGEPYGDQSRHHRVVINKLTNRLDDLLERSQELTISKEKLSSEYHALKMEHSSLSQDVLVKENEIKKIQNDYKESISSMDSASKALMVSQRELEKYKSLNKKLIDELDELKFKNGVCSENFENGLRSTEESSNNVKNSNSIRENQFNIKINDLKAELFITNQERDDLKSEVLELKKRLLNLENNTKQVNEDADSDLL

B1: Sst2-3XFLAG (protein, UniProt P11972 1-698)
chain: MVDKNRTLHELSSKNFSRTPNGLIFTNDLKTVYSIFLICLDLKEKKHSSDTKSFLLTAFTKHFHFTFTYQEAIKAMGQLELKVDMNTTCINVSYNIKPSLARHLLTLFMSSKLLHTPQDRTRGEPKEKVLFQPTPKGVAVLQKYVRDIGLKTMPDILLSSFNSMKLFTFERSSVTDSIIHSDYLIHILFIKMMGAKPNVWSPTNADDPLPCLSSLLEYTNNDDTFTFEKSKPEQGWQAQIGNIDINDLERVSPLAHRFFTNPDSESHTQYYVSNAGIRLFENKTFGTSKKIVIKYTFTTKAIWQWIMDCTDIMHVKEAVSLAALFLKTGLIVPVLLQPSRTDKKKFQISRSSFFTLSKRGWDLVSWTGCKSNNIRAPNGSTIDLDFTLRGHMTVRDEKKTLDDSEGFSQDMLISSSNLNKLDYVLTDPGMRYLFRRHLEKELCVENLDVFIEIKRFLKKMTILKKLIDSKHCDKKSNTSTSKNNIVKTIDSALMKQANECLEMAYHIYSSYIMIGSPYQLNIHHNLRQNISDIMLHPHSPLSEHFPTNLYDPSPASAESAASSISSTEADTLGEPPEVSLKPSKNLSNENCSFKKQGFKHQLKEYKPAPLTLAETHSPNASVENSHTIVRYGMDNTQNDTKSVESFPATLKVLRKLYPLFEIVSNEMYRLMNNDSFQKFTQSDVYKDASALIEIQEKC
B2: sst2^S539A-3XFLAG (protein, UniProt P11972 1-698)
chain: B1 chain with S539A
B3: sst2^S539D-3xFLAG (protein, UniProt P11972 1-698)
chain: B1 chain with S539D

Target: T1, Kel1-GFP (S. cerevisiae)
Experiment: co-IP; Kel1-GFP precipitated with GFP-Trap M-270 magnetic particles from 200 ug yeast lysate, 1 h at 4°C; cells treated with 10 uM alpha-factor for 1 h; lysis buffer 10 mM Tris pH 7.4, 150 mM NaCl, 0.5 mM EDTA, 0.5% Triton X-100, protease and phosphatase inhibitors; RGS detected by anti-FLAG Western blot

| binding | Binder |
| --- | --- |
| binds | B1 |
| binds | B2 |
| binds | B3 |
